{"source": "patent US7345051B2", "about": "“Mucin synthesis inhibitors” (Genaera Corporation, priority 2000, dated 2008)", "tested_on": "H292 clone 15 cells", "test": "PAS stain of intracellular (stored) mucins in H292 clone 15 cells", "assay_type": "cell-based, human", "conditions": "qualitative, no key printed with this table", "note": "At least one structure is not confirmed: it was looked up by name or label, or the drawing left a doubt.", "data": [{"smiles": "O=C1OC(CC(=O)c2cccnc2Nc2cccc(C(F)(F)F)c2)c2ccccc21", "note": "(stereo not shown) [MSI 2216]", "values": [{"measurement": "PAS", "result": "+"}]}]}
